Laboratory results as given in publication PMC9570175.

Molecular target: OsDRB1-2 (rice (Oryza sativa))
Assay: two-hybrid; Matchmaker GAL4 two-hybrid system 3 (Clontech), Y2HGold yeast; OsDRB2 on GAL4 AD (pGADT7), DCL1-RBD or OsDRB1-2 on GAL4 BD (pGBKT7); growth on selective -Ade/-His/-Leu/-Trp plates, 28 °C

- binding: binds
B1: OsDRB2 (DOUBLE-STRANDED RNA-BINDING2) (protein, UniProt Q9AV50 1-514)
chain: MYKNQLQELAQRSCFNLPAYTCLREGPDHAPRFKAAVNFNGEQFESPGFFTTLRQAEHAAAEVALAALARRGPSYSLAARILDETGVYKNLLQEVAQRVGAPLPSYTTERSGLGHLPVFTCTVELAGITFTGDPAKNKKQAEKNAASAAWSSLRQLVRQEASSSNEPESNDEQEQIRIARALLNYRLKEKMAMANNPHASPFPKKFPMQPERRTAFPQSSHSSYSKILPLFRPKSNSRSRPESPAASDAASQTPFRPTESPNPRSRFPAAEAAPYVPVGHFRMPCHSMAPPVTVRTSIPVFSAPPLPPPGARTQQLPPLMSHPPPIRMASPVRIRPAPPLFTPSAVQGPKPMMPVQIKDVQHQQIKETRSPVMPVQVKDAQNQLLKGSLSPVIPVQIKDVQSQPPKEALSPAIPVQIKDVQLQPRNEPVSIGKGVVPLPAIRPPVKVEAPAEVKEASQPVAGSSVVQCKADTSPDSLPKTQLKTANADNADAKDDHLPVDAEEVEDIIRHLELK

No constants are given. Whether binding was seen depends on the method and setting. Binding calls can cover weak binding; strength is not graded here.
